From article PMC6901944
Results are given in words; binding and its absence hold for the method and conditions named. Binding seen in cells or lysates may run through a third protein. Some entries that bind do so weakly or less than the wild type.

Amino acid sequences for entries named in this document (tags omitted). A change or cut given only in a name is not applied to a line headed by its entry.
UniProt P51532: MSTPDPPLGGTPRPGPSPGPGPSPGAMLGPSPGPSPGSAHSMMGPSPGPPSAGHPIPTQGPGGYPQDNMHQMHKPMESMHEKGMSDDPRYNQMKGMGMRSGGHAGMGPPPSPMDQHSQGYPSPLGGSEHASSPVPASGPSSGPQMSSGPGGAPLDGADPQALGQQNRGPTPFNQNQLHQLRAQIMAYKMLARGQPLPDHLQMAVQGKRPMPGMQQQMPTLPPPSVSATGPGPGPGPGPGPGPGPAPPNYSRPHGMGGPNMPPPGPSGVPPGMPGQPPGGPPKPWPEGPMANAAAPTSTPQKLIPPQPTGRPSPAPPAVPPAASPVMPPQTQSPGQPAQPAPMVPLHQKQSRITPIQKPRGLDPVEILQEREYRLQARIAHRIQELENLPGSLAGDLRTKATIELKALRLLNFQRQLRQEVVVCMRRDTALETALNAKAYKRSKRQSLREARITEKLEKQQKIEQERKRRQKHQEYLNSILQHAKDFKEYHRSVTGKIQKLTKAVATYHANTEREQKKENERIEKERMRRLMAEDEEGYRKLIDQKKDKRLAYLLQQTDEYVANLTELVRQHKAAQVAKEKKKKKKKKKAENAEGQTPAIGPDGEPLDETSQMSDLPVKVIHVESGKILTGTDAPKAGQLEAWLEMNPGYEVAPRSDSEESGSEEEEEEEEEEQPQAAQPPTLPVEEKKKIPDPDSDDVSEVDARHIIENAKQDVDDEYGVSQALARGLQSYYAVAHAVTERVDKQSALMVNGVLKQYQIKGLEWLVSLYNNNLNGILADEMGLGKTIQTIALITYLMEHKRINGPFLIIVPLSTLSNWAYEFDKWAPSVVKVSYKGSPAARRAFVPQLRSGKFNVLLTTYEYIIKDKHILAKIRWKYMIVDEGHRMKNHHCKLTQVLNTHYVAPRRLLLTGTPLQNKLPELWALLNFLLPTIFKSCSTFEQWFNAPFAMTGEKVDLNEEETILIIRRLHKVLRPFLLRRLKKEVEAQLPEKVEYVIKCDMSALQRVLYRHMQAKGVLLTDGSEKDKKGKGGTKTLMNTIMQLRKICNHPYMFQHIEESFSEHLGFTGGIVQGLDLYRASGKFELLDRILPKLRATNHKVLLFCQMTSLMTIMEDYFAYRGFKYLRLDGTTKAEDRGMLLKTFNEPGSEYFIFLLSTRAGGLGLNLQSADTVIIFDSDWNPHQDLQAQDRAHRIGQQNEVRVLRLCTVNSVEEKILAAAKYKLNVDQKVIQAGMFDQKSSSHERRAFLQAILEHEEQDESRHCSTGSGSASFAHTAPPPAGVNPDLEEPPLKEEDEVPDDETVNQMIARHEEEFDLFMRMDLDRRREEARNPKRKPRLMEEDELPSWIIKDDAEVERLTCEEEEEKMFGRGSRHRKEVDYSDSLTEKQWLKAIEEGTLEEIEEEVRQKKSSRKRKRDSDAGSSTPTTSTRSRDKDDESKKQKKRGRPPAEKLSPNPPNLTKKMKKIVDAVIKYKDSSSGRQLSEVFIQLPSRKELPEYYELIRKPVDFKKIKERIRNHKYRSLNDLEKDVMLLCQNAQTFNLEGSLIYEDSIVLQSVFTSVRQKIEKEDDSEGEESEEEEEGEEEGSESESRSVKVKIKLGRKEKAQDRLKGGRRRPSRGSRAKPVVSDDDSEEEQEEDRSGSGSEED
UniProt P05412: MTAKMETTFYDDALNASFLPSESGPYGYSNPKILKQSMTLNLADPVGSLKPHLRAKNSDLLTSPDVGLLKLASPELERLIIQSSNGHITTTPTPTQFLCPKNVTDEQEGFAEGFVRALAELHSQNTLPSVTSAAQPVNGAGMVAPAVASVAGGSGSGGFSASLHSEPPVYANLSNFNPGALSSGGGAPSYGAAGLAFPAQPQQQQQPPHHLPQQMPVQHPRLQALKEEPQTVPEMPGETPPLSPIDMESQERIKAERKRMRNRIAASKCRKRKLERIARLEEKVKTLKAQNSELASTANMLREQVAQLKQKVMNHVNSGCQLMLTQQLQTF

Target: Brahma related gene (BRG1) (human (endogenous in HepG2)) (UniProt P51532)
Test: co-IP; HepG2 cells treated with LPS plus palmitate; nuclear proteins extracted; anti-Brg1 or pre-immune IgG incubated with lysate overnight, absorbed on Protein A/G-plus agarose beads; Western blot

AP-1 (from UniProt P05412 1-331; P01100 1-380) (complex)
binding: binds
